Results are given in words; binding and its absence hold for the method and conditions named. Binding can be weak; no strength is given.
Legend:
Thrombin = assay: enzyme inhibition with synthetic substrate
Trypsin = assay: enzyme inhibition with synthetic substrate

B1: M2-4G (peptide)
peptide: GICSRSLPPICIPD
modifications: disulphide bridge between the two cysteinyl side chains; open chain
Q: B1 was tested. Which binding (Thrombin) did it give?
A: binds

Q: What about the binding (Trypsin) of the same binder?
A: binds
